Measured values published in patent US20070218003A1.
Results are given in words; binding and its absence hold for the method and conditions named. In cells and extracts the contact can be indirect. Some results given as binding are weak or reduced against the parent protein; the word gives no strength.

Chains of the proteins cited; added tags and fusions are not shown. Lines headed by an entry give the natural chain unless they say otherwise; changes in a name come on top. A line that says so, or that is headed by a name, gives the form on record, which may keep a tag or linker. Residues count along the entry.
human LTBP2 with Myc tag (pEF6/ssMyc-hLTBP2) (Q14767, form named): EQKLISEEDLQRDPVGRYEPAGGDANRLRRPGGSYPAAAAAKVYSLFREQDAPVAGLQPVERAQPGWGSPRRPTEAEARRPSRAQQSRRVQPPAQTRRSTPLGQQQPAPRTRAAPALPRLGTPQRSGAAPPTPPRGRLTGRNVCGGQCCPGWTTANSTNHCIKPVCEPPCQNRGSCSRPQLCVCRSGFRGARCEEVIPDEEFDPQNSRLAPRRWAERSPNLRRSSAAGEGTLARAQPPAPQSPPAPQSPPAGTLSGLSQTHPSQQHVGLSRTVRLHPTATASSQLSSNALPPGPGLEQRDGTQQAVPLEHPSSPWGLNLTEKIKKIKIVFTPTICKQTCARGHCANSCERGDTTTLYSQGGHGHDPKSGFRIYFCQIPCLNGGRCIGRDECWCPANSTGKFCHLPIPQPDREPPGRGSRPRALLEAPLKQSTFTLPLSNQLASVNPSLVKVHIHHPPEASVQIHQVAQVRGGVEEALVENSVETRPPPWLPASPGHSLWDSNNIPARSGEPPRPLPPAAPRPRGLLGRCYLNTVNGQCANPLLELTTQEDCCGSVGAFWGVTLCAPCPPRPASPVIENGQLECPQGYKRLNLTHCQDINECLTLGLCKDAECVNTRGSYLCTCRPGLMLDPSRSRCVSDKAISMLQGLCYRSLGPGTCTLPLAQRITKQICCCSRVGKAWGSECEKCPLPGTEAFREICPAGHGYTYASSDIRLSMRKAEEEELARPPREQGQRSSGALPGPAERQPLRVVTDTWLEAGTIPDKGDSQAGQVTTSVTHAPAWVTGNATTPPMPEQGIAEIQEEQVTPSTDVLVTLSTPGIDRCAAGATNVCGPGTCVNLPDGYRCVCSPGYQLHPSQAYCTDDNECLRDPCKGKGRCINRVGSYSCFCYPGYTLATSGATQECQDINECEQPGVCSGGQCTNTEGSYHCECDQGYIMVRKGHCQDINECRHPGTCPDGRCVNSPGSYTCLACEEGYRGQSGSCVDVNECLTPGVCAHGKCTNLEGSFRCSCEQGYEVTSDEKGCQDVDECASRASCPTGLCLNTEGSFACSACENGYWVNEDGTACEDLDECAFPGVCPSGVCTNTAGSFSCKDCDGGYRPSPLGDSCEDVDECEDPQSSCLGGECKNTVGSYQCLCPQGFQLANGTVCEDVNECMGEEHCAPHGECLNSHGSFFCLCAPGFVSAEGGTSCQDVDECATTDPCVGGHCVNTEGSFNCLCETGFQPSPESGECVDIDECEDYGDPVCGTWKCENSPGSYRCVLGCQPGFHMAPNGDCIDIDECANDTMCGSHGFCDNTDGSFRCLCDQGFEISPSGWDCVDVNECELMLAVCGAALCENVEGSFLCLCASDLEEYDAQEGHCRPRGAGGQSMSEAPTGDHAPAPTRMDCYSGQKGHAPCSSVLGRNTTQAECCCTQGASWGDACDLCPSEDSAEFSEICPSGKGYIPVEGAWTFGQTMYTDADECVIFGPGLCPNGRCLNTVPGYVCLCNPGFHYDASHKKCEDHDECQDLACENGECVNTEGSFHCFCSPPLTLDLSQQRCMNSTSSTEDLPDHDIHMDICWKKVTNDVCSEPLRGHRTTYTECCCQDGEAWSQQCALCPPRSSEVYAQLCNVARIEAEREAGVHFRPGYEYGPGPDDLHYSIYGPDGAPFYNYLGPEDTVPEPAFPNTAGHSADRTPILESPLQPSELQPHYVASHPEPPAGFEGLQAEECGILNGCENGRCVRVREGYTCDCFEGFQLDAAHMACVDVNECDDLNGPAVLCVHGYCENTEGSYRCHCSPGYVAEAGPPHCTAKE
UniProt Q9UBX5: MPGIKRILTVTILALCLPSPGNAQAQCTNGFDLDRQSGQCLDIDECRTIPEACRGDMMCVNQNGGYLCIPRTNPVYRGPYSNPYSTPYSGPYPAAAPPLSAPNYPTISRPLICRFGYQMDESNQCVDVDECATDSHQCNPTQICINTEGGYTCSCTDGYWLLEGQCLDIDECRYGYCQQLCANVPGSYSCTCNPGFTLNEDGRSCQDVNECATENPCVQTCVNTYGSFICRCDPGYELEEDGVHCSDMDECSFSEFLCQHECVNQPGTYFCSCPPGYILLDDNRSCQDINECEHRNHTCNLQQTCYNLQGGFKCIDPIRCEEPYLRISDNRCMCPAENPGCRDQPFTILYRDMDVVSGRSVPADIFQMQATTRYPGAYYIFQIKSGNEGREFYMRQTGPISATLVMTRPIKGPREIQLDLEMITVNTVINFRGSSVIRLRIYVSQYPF
UniProt Q5EA62, residues 24-448: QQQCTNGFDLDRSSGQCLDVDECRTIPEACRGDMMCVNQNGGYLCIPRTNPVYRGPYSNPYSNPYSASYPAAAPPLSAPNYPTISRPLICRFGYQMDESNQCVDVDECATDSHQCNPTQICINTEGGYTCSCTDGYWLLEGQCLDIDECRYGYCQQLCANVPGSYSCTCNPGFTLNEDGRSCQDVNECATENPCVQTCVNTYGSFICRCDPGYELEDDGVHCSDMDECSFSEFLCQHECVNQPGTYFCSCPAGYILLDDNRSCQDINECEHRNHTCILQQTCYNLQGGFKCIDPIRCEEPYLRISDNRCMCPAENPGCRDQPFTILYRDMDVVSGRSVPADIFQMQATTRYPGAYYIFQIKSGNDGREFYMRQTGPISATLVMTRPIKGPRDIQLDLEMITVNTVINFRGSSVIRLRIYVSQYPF
UniProt Q28019, residues 36-1842: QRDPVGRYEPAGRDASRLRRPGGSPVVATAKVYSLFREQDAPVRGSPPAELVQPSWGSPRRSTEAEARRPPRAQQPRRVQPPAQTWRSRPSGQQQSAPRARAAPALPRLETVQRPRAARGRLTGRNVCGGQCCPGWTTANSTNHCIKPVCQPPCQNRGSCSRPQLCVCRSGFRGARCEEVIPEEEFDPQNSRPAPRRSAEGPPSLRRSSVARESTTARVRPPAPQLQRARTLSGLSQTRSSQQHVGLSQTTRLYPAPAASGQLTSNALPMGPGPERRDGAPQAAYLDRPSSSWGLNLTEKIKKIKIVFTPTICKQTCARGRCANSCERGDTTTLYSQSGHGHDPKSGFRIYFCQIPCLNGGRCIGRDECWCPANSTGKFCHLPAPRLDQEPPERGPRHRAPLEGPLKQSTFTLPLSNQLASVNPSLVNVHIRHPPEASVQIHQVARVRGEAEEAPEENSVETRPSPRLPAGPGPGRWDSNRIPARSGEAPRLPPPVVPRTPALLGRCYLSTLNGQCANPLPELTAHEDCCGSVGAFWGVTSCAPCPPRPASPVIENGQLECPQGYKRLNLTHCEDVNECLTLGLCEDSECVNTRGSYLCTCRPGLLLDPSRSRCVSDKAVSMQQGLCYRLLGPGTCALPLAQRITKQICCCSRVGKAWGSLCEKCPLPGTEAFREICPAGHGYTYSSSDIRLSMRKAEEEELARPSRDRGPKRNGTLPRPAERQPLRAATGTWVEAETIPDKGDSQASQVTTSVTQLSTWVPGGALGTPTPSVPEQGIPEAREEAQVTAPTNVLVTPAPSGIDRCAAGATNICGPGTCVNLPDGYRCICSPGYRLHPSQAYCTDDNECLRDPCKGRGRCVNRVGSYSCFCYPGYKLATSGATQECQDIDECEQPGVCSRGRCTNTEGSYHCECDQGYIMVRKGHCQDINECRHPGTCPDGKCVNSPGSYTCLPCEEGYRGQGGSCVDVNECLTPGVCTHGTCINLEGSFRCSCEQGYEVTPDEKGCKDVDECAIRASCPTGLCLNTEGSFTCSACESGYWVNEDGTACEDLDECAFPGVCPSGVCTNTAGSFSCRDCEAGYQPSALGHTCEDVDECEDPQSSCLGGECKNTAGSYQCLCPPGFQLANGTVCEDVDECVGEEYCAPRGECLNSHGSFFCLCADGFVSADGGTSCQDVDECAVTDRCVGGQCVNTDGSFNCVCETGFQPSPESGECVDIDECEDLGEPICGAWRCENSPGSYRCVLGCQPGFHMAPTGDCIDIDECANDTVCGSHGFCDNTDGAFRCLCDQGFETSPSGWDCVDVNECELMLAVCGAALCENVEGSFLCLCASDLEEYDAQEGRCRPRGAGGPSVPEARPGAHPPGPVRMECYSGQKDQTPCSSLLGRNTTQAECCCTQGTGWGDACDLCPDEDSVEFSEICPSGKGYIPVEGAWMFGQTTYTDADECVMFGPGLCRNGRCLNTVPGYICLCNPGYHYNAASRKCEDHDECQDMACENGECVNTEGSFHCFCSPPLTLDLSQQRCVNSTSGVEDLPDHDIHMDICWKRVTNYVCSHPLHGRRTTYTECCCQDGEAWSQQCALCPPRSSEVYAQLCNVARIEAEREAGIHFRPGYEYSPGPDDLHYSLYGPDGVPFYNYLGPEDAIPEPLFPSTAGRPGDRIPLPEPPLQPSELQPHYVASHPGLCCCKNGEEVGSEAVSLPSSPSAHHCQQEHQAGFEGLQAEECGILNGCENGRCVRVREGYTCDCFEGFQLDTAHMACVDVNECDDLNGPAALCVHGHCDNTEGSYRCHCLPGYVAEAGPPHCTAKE

Columns and labels:
[1] = molecular target: human LTBP2 with Myc tag (pEF6/ssMyc-hLTBP2) (human) (UniProt Q14767); experiment: co-precipitation with anti-FLAG antibody, anti-Myc Western blot
[2] = molecular target: human DANCE construct with Myc tag (human) (UniProt Q9UBX5); experiment: as above
[3] = molecular target: human LTBP2 with Myc tag (pEF6/ssMyc-hLTBP2) (human) (UniProt Q14767); experiment: discussion of the pull-down and co-precipitation experiments
[4] = molecular target: human DANCE construct with Myc tag (human) (UniProt Q9UBX5); experiment: discussion of the co-precipitation with deletion mutants
[5] = molecular target: DANCE in the culture supernatant of bovine arterial smooth muscle cells (bovine) (UniProt Q5EA62); experiment: pull-down with anti-FLAG agarose from 35S-labelled bovine smooth muscle cell supernatant, autoradiography
[6] = molecular target: LTBP2 in the culture supernatant of bovine arterial smooth muscle cells (bovine) (UniProt Q28019); experiment: as above

binding [1]	binding [2]	binding [3]	binding [4]	binding [5]	binding [6]	Substance
binds	–	–	–	–	–	human DANCE deltaC with C-terminal FLAG and 6xHis (pEF6-hDANCE ΔC-FLAG) (from UniProt Q9UBX5 24-316)
binds	binds	binds	binds	binds	binds	human DANCE with C-terminal FLAG tag and 6xHis tag (pEF6-hDANCE-FLAG) (from UniProt Q9UBX5 24-448)
